Test results from PubChem BioAssay AID493014 (National Center for Advancing Translational Sciences (NCATS), 2011).
Some of the results follow. Further columns of the screen follow, without active or inactive calls. Most of these compounds were active or inconclusive in the main read-out, so they are no random draw. The note in brackets gives the kind of curve behind each potency; many fits are weak.

Experiment: qHTS Assay to Find Inhibitors of Chronic Active B-Cell Receptor Signaling
Conditions: ABC-DLBCL IkBa-CBG/CBR reporter, luminescence ratio (green luciferase fused to IkBa over red control in TMD8 lymphoma cells), 4 h
In short: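 TMD8 human ABC-DLBCL cells with doxycycline-inducible IκBα–green luciferase fusion and unfused red luciferase, in 0.5% FBS medium; compounds up to 46 uM, 4 h at 37C. Green/red luminescence ratio, filter-overlap corrected, fitted to concentration-response curves.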

[1] = measured here: CBR red luminescence, cell number
[2] = measured here: IkBa-CBG green luminescence

SMILES | AC50 [1] | AC50 [2]
COc1ccc(C(=O)NC(=S)NNC(=O)c2ccc(NC(=O)C(C)C)cc2)cc1 | 13 µM [rising, partial curve] | –
Cn1c(-c2ccsc2)c(-c2cccs2)c2cc(-c3ccc4cc[nH]c4c3)ccc21 | 6.51 µM [falling, single point] | –
O=C(Cn1c(NCCO)nc2ccccc21)c1ccc([N+](=O)[O-])cc1 | 22.4 µM [falling, single point] | –
COc1ccc(-c2cn3ccc4ccccc4c3n2)cc1 | 1.84 µM [rising, full curve, poor fit] | –
C/C(=N\NC(=O)c1ccc(O)cc1)c1cc2ccccc2o1 | 11.2 µM [falling, partial curve, poor fit] | –
COc1ccc(OC)c2[nH]c(=O)c(CCNC(=O)c3cccs3)cc12 | 1.41 µM [rising, full curve] | –
Cc1c(C(=O)N2CCOCC2)[nH]c2ccc(OCc3ccccc3)cc12 | 2.31 µM [rising, partial curve, poor fit] | –
O=C(Nc1c2c(nn1-c1ccc(Cl)cc1)CS(=O)(=O)C2)c1ccc2c(c1)OCO2 | 29.1 µM [rising, single point] | 23.1 µM [falling, single point]
Nc1nc(-c2cc(Cl)cc(Cl)c2OC(F)F)cs1 | 35.5 µM [rising, single point] | –
CCCC(=O)N1CCN(c2nc3ccc(Br)cc3s2)CC1 | 1.58 µM [rising, partial curve, poor fit] | –
O=C(Nc1ccncc1)c1sc2ccccc2c1Cl | 10 µM [falling, partial curve, poor fit] | –
CC1CCN(CCCNC(=O)c2coc3nc4ccccc4nc23)CC1 | 18.4 µM [falling, single point] | –
COc1ccccc1N1CCN(CC(O)c2c(C)[nH]c3ccccc23)CC1 (configuration not stated) | 7.94 µM [falling, partial curve, poor fit] | –
Cc1oc(-c2cccc(Cl)c2)nc1CN1CCCC(C(=O)NC(C)c2ccc3c(c2)OCCO3)C1 (configuration not stated) | 2.06 µM [rising, full curve, poor fit] | –
O=C(NCC1CCCO1)c1ccc2c(c1)C(=O)N(c1cccc([N+](=O)[O-])c1)C2=O (configuration not stated) | 0.355 µM [rising, partial curve, poor fit] | –
O=C(Nc1ncccn1)c1cccc(F)c1 | 2.82 µM [falling, single point] | –
CCC(=O)OCC(=O)C1(OC(=O)CC)[C@H](C)C[C@H]2[C@H]3[C@H]([C@@H](O)C[C@@]21C)[C@@]1(C)C=CC(=O)C=C1C[C@H]3Cl (some centres not stated) | 0.00517 µM [rising, full curve, poor fit] | –
COc1ccc(C=NNc2ccc([N+](=O)[O-])cc2S(=O)(=O)Nc2ccccc2C(=O)O)cc1OC | 29.1 µM [rising, single point] | 20.6 µM [falling, partial curve, poor fit]
CCOc1cc(/C=C(\C#N)C(=O)Nc2cccc(C(=O)O)c2)ccc1OCc1ccc(Br)cc1 | 11.2 µM [rising, partial curve, poor fit] | –
CCOC(CCNC(=O)c1cn(-c2cccc(C)n2)cn1)OCC | 8.91 µM [falling, partial curve] | –
COc1ccccc1NC(=O)NC(=O)c1ccccc1 | 1.58 µM [falling, full curve, poor fit] | –

SMILES | AC50 [1] | AC50 [2]
CN1CCC(=C(c2ccc(Cl)cc2)c2ccccn2)CC1 | 11.2 µM [falling, single point] | –
COc1cccc(/C=N/Nc2ccnc(=O)[nH]2)c1O | 11.2 µM [falling, partial curve] | –
O=C(CSC(=S)N1CCCC1)N1CCN(S(=O)(=O)c2ccccc2F)CC1 | 1.84 µM [rising, full curve] | –
CCOC(=O)N1CCN(C(=O)c2cc(COc3ccc4ncccc4c3)on2)CC1 | 22.4 µM [falling, single point] | –
O=C(CSC1=NS(=O)(=O)c2ccccc2N1)Nc1ccc(F)cc1 | 29.1 µM [falling, single point] | –
CC12CCC(=O)N1C(C(=O)Nc1nc3ccc(Cl)cc3s1)CS2 (configuration not stated) | 5.17 µM [falling, partial curve] | 3.26 µM [rising, partial curve, poor fit]
Cc1cc(NC(=O)CCCC(=O)N(CC(=O)NCCc2ccccc2)Cc2ccc(F)cc2)no1 | 35.5 µM [rising, partial curve, poor fit] | –
CSc1cc(-c2ccc(Cl)cc2)[nH]c(=O)c1C#N | 0.316 µM [rising, full curve, poor fit] | –
C/C(=N\Nc1ccc(S(=O)(=O)N2CCCCC2)cn1)c1cccc(Br)c1 | 0.184 µM [rising, full curve, poor fit] | –
CNc1nc(-c2ccc3c(c2)CCN3C(=O)c2ccc(F)cc2)cs1 | 12.6 µM [falling, single point] | –
Cc1occc1C(=O)N/N=C/C(Br)=C/c1ccccc1 | 15.8 µM [falling, partial curve] | 15.8 µM [falling, single point]
COc1ccc(CC(=O)N2CC(C)CC(C)C2)cc1OC (configuration not stated) | 20.6 µM [rising, single point] | –
CCn1cc(C(=O)O)c(=O)c2cc(F)c(N/N=C/c3ccccc3)cc21 | 4.11 µM [falling, partial curve] | –
Cc1ccc(NC(=O)C(c2ccccc2)N2CCN(CC(=O)N3CCOCC3)CC2)cc1Cl (configuration not stated) | 1.46 µM [rising, full curve] | –
CN(CC(=O)NCc1ccco1)C(=O)C1CC(=O)N(c2ccc3c(c2)OCCO3)C1 (configuration not stated) | 9.2 µM [rising, partial curve, poor fit] | –
O=C(CNCC1CCCCC1)Nc1ccc(OC(F)(F)F)cc1 | 7.08 µM [rising, full curve] | –
O=C1Nc2ccc(Cl)cc2C(=O)C1(F)c1ccccc1 (configuration not stated) | 35.5 µM [falling, single point] | –
CCOC(=O)c1c(CSC(=N)N)n(-c2ccc(Br)cc2)c2cc(Br)c(OC(C)=O)cc12 | 20.6 µM [rising, single point] | –
Cc1ccc(-c2nnc3cccc(Cl)n23)cc1 | 35.5 µM [rising, single point] | –
CC(C)C(C)NC(=O)COn1nnc2ccc(S(=O)(=O)N3CCOCC3)cc21 (configuration not stated) | 6.51 µM [falling, single point] | –
COc1ccc(-c2csc(NC(=S)NC(=O)/C=C/c3ccc(C(C)C)cc3)n2)cc1OC | 0.126 µM [rising, full curve, poor fit] | –

Copied from the list:
In AC50 [1], `CNc1nc(-c2ccc3c(c2)CCN3C(=O)c2ccc(F)cc2)cs1` shows 12.6 µM [falling, single point]
In AC50 [1], `Cc1occc1C(=O)N/N=C/C(Br)=C/c1ccccc1` shows 15.8 µM [falling, partial curve]

Next results:

SMILES | AC50 [1] | AC50 [2]
Cc1[nH]c2ccccc2c1C(=O)COC(=O)c1ccc2c(=O)n3c(nc2c1)CCC3 | 2.24 µM [falling, partial curve, poor fit] | –
COc1ccc(/C=C/C(=O)Nc2cccnc2Cl)cc1 | 14.1 µM [falling, partial curve, poor fit] | –
CCC(=O)Nc1ccc(C(=O)CSc2nnc(-c3cccnc3)o2)cc1 | 0.146 µM [rising, full curve, poor fit] | –
Cc1ccc(NS(=O)(=O)c2ccc(Cl)c(C(=O)Nc3ccccc3-c3nc4ccccc4[nH]3)c2)cc1C | 0.651 µM [rising, partial curve, poor fit] | –
O=C(NNC(=O)c1ccccc1Br)c1cccc(Cl)c1 | 25.1 µM [falling, single point] | –
Cc1ccc(/C=N\NC(=O)C2CC(=O)N(c3ccccc3)C2)o1 (configuration not stated) | 2.24 µM [rising, partial curve, poor fit] | –
O=C(Nc1cccc(Br)c1)c1ccc2nc(N3C(=O)CCC3=O)sc2c1 | 12.6 µM [falling, single point] | –
Cc1ccc(SC2CC(=O)N(c3ccc4c(c3)OCCO4)C2=O)cc1 (configuration not stated) | 35.5 µM [falling, single point] | –
COC(=O)NNC(=O)COc1ccc2ccccc2c1Br | 6.51 µM [rising, single point] | –
CC(=O)c1cccc(CN2CCCC(C(=O)Nc3ccc(-c4ccco4)cc3)C2)c1 (configuration not stated) | 12.6 µM [falling, single point] | –
CCc1ccc(CCC(=O)Nc2ccc(C(=O)O)cc2)o1 | 8.91 µM [falling, partial curve] | –
NC(=O)c1ccccc1N/C=C/C(=O)c1ccc(Cl)cc1Cl | 14.1 µM [falling, single point] | –
C=CCn1c(C)cc(-c2csc(NC)n2)c1C | 35.5 µM [falling, partial curve, poor fit] | –
CC(C)OP(=O)(c1ccc(N(C)C)cc1)C(Nc1ccccc1)c1ccccc1 (configuration not stated) | 17.8 µM [falling, single point] | –
CS(=O)(=O)c1ccc(C(=O)OCC(=O)Nc2cccnc2Cl)cc1[N+](=O)[O-] | 20.6 µM [falling, single point] | –
Oc1[nH]c2ccccc2c1N=NC(=S)N1CCOCC1 | 35.5 µM [falling, single point] | 1 µM [falling, full curve, poor fit]
Cc1ccc(Nc2nnc(-c3ccccc3N)o2)cc1C | 5.62 µM [falling, full curve] | –
COc1ccc(NC(=O)C2C3C=CC(C3)C2C(=O)O)cc1 (configuration not stated) | 3.98 µM [rising, full curve, poor fit] | –
COc1ccc2c(c1)[nH]c(=O)c1sc3ccccc3c12 | 3.98 µM [falling, full curve, poor fit] | –
O=C(NCc1ccccc1)Oc1cccc(Cl)c1 | 2.59 µM [rising, full curve, poor fit] | –

Record cards, from the list above.
`CC(C)OP(=O)(c1ccc(N(C)C)cc1)C(Nc1ccccc1)c1ccccc1` (configuration not stated) in the list: AC50 [1]: 17.8 µM [falling, single point]
`Cc1ccc(SC2CC(=O)N(c3ccc4c(c3)OCCO4)C2=O)cc1` (configuration not stated) in the list: AC50 [1]: 35.5 µM [falling, single point]
`COc1ccc2c(c1)[nH]c(=O)c1sc3ccccc3c12` in the list: AC50 [1]: 3.98 µM [falling, full curve, poor fit]
